No constants are given. Whether binding was seen depends on the method and setting. In cells and extracts the contact can be indirect. Some entries that bind do so weakly or less than the wild type.
What was measured:
[1] = biological target: calreticulin (CRT) (human (endogenous in MDA-MB-231 and MDA-MB-231/DX)) (UniProt P27797); experiment: co-IP; 100 ug plasma membrane-associated proteins (surface biotinylation) of MDA-MB-231 and MDA-MB-231/DX cells immunoprecipitated with anti-CRT, blotted for Pgp; cells treated 24 h with 5 uM doxorubicin, with or without 75 nM Tariquidar or 75 nM R-3
[2] = biological target: calreticulin (CRT) (human (endogenous in MDA-MB-231 and MDA-MB-231/DX)) (UniProt P27797); experiment: proximity ligation; DuoLink In Situ Kit on MDA-MB-231 and MDA-MB-231/DX cells with mouse anti-Pgp (UIC-2) and rabbit anti-CRT (PA3-900); cells treated 24 h with 5 uM doxorubicin, with or without 75 nM Tariquidar or 75 nM R-3

- binding [1]: binds
- binding [2]: binds
Substance: ATP Binding Cassette transporter B1 or P-glycoprotein (ABCB1/Pgp) (from UniProt P08183 1-1280)

Reference: PMC7226521
